Results are given in words; binding and its absence hold for the method and conditions named. Some binding calls cover weakened binding; strength is not graded here.
Columns and labels:
[1] = target: T1, GPRC5D peptide stretch 227…237 (ECL3) (human); assay: Pepscan ELISA on structurally constrained peptide arrays, high stringency, 1 ug/ml
T1 sequence (peptide): GNPQFQRQPQW

Sequences of proteins named here, by UniProt entry; tags and fusion partners are left off. A change or cut given only in a name is not applied to a line headed by its entry.
UniProt Q9NZD1: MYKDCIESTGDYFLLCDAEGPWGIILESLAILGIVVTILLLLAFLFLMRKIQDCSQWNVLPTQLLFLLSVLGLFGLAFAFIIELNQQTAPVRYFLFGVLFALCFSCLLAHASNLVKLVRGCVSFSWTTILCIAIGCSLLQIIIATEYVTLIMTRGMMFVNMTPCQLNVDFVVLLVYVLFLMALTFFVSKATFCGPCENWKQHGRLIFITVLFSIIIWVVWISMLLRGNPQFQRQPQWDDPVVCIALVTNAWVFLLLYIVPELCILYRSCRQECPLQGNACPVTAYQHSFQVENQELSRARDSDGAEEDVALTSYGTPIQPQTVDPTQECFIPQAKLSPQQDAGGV

[2] = target: T2, GPRC5D peptide stretch 10GDYFLLCD17 (N-term) (human); assay: as above
T2 sequence (peptide): GDYFLLCD

[3] = target: human GPRC5D having the amino acid sequence set forth in SEQ ID NO: 97 (target protein of the epitope mapping; also the reagent for CAR detection) (human) (UniProt Q9NZD1); assay: flow cytometry of CAR-transduced human T cells

B1: ET150-18 mIgG1 (antibody, V domains shown)
VH: EVQLVESGGGLIQPGGSLRLSCAASGFTFSNYAMNWVRQAPGKGLEWVSTINGRGSSTIYADSVKGRFTISRDNSKNTLYLQMNSLRAEDTATYYCARYISRGLGDSWGQGTLVTV
VL: QSVVTQPPSMSAAPGQQVTISCSGGNSNIERNYVSWYLQLPGTAPKLVIFDNDRRPSGIPDRFSGSKSGTSATLGITGLQTGDEADYYCGTWDSSLRGWVFGGGTKLTVLG
For B1, the binding [1] was “binds” and the binding [2] was “binds”.

B2: GPRC5D-targeted 28z CAR18 (GRPC5D 28z CAR18), expressed on human T cells (protein)
chain: QSVVTQPPSMSAAPGQQVTISCSGGNSNIERNYVSWYLQLPGTAPKLVIFDNDRRPSGIPDRFSGSKSGTSATLGITGLQTGDEADYYCGTWDSSLRGWVFGGGTKLTVLGSRGGGGSGGGGSGGGGSLEMAEVQLVESGGGLIQPGGSLRLSCAASGFTFSNYAMNWVRQAPGKGLEWVSTINGRGSSTIYADSVKGRFTISRDNSKNTLYLQMNSLRAEDTATYYCARYISRGLGDSWGQGTLVTVIEVMYPPPYLDNEKSNGTIIHVKGKHLCPSPLFPGPSKPFWVLVVVGGVLACYSLLVTVAFIIFWVRSKRSRLLHSDYMNMTPRRPGPTRKHYQPYAPPRDFAAYRSRVKFSRSADAPAYQQGQNQLYNELNLGRREEYDVLDKRRGRDPEMGGKPRRKNPQEGLYNELQKDKMAEAYSEIGMKGERRRGKGHDGLYQGLSTATKDTYDALHMQALPPR
In the case of B2, the binding [3] is reported as “binds”.

Source: US20180118803A1 (Memorial Sloan Kettering, published 2018)
